This experiment concerns the target NF-κB RelA/p65 subunit (human (endogenous in OE21)) (UniProt Q04206). As to the kind of experiment: native gel or EMSA; supershift with antibodies against p50 or p65 on nuclear extracts of OE21 cells treated for 1 h with 1 × 10^5 C. albicans/ml; γ32P-labelled oligonucleotide with a consensus NF-κB site, 30 min at room temperature, gel at 100 V and 4°C.

Protein sequences, listed by entry. Tags and fused reporters are not part of them. Residues count along the entry.
UniProt Q04206: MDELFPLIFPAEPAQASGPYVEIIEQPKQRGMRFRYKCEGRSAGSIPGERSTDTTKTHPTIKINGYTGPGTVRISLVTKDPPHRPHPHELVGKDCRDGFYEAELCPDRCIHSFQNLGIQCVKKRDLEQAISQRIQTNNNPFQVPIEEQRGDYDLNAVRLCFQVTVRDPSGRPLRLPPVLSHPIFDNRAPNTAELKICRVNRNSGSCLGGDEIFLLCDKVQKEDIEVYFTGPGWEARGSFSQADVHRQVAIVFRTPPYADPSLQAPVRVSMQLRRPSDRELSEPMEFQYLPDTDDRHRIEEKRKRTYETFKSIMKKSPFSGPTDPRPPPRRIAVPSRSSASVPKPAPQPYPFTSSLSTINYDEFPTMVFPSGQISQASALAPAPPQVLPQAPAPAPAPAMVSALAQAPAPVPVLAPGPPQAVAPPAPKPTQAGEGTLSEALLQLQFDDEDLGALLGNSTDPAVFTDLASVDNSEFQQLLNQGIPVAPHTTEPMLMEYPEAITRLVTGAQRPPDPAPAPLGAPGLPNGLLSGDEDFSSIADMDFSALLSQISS
UniProt P19838, residues 1-433: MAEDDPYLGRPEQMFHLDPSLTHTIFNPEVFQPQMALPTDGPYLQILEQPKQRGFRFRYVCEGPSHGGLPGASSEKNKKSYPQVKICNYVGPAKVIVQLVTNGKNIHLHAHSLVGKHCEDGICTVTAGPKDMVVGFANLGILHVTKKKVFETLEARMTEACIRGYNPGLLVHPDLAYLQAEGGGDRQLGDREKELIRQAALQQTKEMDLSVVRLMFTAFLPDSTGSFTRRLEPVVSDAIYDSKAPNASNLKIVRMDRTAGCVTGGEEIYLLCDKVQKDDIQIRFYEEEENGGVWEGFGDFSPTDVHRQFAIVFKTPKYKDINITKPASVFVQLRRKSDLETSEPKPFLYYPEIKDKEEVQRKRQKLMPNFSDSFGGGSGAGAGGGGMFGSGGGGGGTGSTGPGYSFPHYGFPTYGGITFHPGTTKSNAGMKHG

These are yes or no findings as the source states them, for the method shown. Some binding calls cover weakened binding; strength is not graded here.

As for “NF-κB p50 subunit (from UniProt P19838 1-433)”, the binding entry is recorded as “binds”.

(Values after article PMC2702365.)
